These are yes or no findings as the source states them, for the method shown. Binding seen in cells or lysates may run through a third protein. Some results given as binding are weak or reduced against the parent protein; the word gives no strength.

The chains behind the UniProt entries cited, without tags or fusion partners. Residues count along the entry.
UniProt P37173, residues 23-567: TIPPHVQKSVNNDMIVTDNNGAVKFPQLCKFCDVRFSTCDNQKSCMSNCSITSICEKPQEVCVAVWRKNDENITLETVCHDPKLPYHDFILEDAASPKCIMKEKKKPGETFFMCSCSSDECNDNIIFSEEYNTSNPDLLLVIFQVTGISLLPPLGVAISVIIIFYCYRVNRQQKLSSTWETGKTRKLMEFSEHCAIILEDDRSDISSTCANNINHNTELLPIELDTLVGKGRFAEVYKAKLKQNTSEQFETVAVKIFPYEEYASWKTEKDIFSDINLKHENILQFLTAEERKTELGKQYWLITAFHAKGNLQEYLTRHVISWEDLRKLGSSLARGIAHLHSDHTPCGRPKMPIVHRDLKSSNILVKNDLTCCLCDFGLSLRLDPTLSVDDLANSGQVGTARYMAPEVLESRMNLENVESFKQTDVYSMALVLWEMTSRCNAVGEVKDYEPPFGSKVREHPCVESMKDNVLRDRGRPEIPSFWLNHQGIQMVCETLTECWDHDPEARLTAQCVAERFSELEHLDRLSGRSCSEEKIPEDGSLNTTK
UniProt P21926: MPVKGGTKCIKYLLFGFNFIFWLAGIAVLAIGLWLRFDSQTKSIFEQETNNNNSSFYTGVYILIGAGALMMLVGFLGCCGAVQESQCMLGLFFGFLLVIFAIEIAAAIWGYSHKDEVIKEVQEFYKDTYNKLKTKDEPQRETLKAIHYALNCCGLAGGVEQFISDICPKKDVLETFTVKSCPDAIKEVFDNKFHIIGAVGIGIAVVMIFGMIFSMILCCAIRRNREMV

The target of this assay is TGF-β type II receptor (TβR2) (human (endogenous in HSF)) (UniProt P37173). Put plainly: co-IP; HSF lysed in RIPA buffer, pre-cleared, immunoprecipitation with anti-TβR1 or anti-TβR2 antibody and protein A/G PLUS-agarose at 4 °C overnight, washed four times with RIPA, Western blot; cells under normoxia or hypoxia (2% O2, 24 h), with CD9 siRNA or Ad-CD9 overexpression.

Consider “tetraspanin CD9 (from UniProt P21926 1-228)”, for which the binding entry was “binds”.
